Values from PubChem BioAssay AID1224828 (NIAID, 2016)

Purpose: 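Knock-downs that increase or decrease LPS-induced p65 nuclear translocation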 (primary screen)
Cells: mouse RAW264.7 G9 macrophage reporter cells (GFP-p65, Tnf promoter-mCherry)
Knock-down reagent: siRNA pool against mouse genes, 100 nM
Duration: 2 days siRNA transfection, then 40 min LPS before fixation
Treatment: LPS (Salmonella minnesota R595) at 10 ng/ml
Measured: 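Imaged p65 nuclear translocation ratio, normalised to the plate median, converted to robust z-scores and averaged across two replicates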
Scale: p65 translocation robust z-score: higher = more nuclear NF-kappaB p65 after LPS than the plate median; nuclear/cytoplasmic p65 ratio: higher = more nuclear NF-kappaB p65
Rule for the call: 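Called active when z exceeds 3.3 or falls under -1.56 (median of Tlr4 controls), giving activity score of at least 50; no calls for control wells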
Calls: active = hit (p65 shift raised or lowered); inactive = no clear change
This is a random part of about 17,000 reagents. Of all reagents, 762 (4.5%) got an active call. 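Active calls include both raised and lowered p65 entry, mostly lowered; wells with fewer than 50 cells lack a z-score.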 The raw values are shown without normalisation. Entries without a mark were called inactive.

Cyba → p65 translocation robust z-score = -0.1; nuclear/cytoplasmic p65 ratio, rep 1 = 1.44; nuclear/cytoplasmic p65 ratio, rep 2 = 1.38; low cell count flag = enough cells to score
Reep6 → nuclear/cytoplasmic p65 ratio, rep 1 = 1.58; nuclear/cytoplasmic p65 ratio, rep 2 = 1.49; low cell count flag = fewer than 50 cells per well; well left out of scoring
Sowaha → p65 translocation robust z-score = -0.2; nuclear/cytoplasmic p65 ratio, rep 1 = 1.33; nuclear/cytoplasmic p65 ratio, rep 2 = 1.52; low cell count flag = enough cells to score
Ptger1 → p65 translocation robust z-score = -1.32; nuclear/cytoplasmic p65 ratio, rep 1 = 1.33; nuclear/cytoplasmic p65 ratio, rep 2 = 1.38; low cell count flag = enough cells to score
Dagla → p65 translocation robust z-score = 0.05; nuclear/cytoplasmic p65 ratio, rep 1 = 1.79; nuclear/cytoplasmic p65 ratio, rep 2 = 1.47; low cell count flag = enough cells to score
Krt12 → p65 translocation robust z-score = -0.1; nuclear/cytoplasmic p65 ratio, rep 1 = 1.46; nuclear/cytoplasmic p65 ratio, rep 2 = 1.38; low cell count flag = enough cells to score
Parp3 → p65 translocation robust z-score = -0.59; nuclear/cytoplasmic p65 ratio, rep 1 = 1.57; nuclear/cytoplasmic p65 ratio, rep 2 = 1.49; low cell count flag = enough cells to score
Wrap73 → p65 translocation robust z-score = 0.48; nuclear/cytoplasmic p65 ratio, rep 1 = 1.64; nuclear/cytoplasmic p65 ratio, rep 2 = 1.62; low cell count flag = enough cells to score

Next part; the last 3 above are carried over.
Krt12 → p65 translocation robust z-score = -0.1; nuclear/cytoplasmic p65 ratio, rep 1 = 1.46; nuclear/cytoplasmic p65 ratio, rep 2 = 1.38; low cell count flag = enough cells to score
Parp3 → p65 translocation robust z-score = -0.59; nuclear/cytoplasmic p65 ratio, rep 1 = 1.57; nuclear/cytoplasmic p65 ratio, rep 2 = 1.49; low cell count flag = enough cells to score
Wrap73 → p65 translocation robust z-score = 0.48; nuclear/cytoplasmic p65 ratio, rep 1 = 1.64; nuclear/cytoplasmic p65 ratio, rep 2 = 1.62; low cell count flag = enough cells to score
Ube2v2 → p65 translocation robust z-score = 0.59; nuclear/cytoplasmic p65 ratio, rep 1 = 1.44; nuclear/cytoplasmic p65 ratio, rep 2 = 1.73; low cell count flag = enough cells to score
Got1 → nuclear/cytoplasmic p65 ratio, rep 1 = 1.42; nuclear/cytoplasmic p65 ratio, rep 2 = 1.49; low cell count flag = fewer than 50 cells per well; well left out of scoring
Trap1a → nuclear/cytoplasmic p65 ratio, rep 1 = 1.58; nuclear/cytoplasmic p65 ratio, rep 2 = 1.18; low cell count flag = fewer than 50 cells per well; well left out of scoring
Gpr26 → p65 translocation robust z-score = -2.78 (active); nuclear/cytoplasmic p65 ratio, rep 1 = 1.15; nuclear/cytoplasmic p65 ratio, rep 2 = 1.14; low cell count flag = enough cells to score
Coro2b → p65 translocation robust z-score = 0.49; nuclear/cytoplasmic p65 ratio, rep 1 = 1.62; nuclear/cytoplasmic p65 ratio, rep 2 = 1.37; low cell count flag = enough cells to score
Pkp1 → p65 translocation robust z-score = 0.2; nuclear/cytoplasmic p65 ratio, rep 1 = 1.44; nuclear/cytoplasmic p65 ratio, rep 2 = 1.51; low cell count flag = enough cells to score
Prrc1 → nuclear/cytoplasmic p65 ratio, rep 1 = 1.02; nuclear/cytoplasmic p65 ratio, rep 2 = 1.1; low cell count flag = fewer than 50 cells per well; well left out of scoring
Glycam1 → nuclear/cytoplasmic p65 ratio, rep 1 = 1.58; nuclear/cytoplasmic p65 ratio, rep 2 = 1.34; low cell count flag = fewer than 50 cells per well; well left out of scoring
Vps29 → p65 translocation robust z-score = 1.66; nuclear/cytoplasmic p65 ratio, rep 1 = 1.65; nuclear/cytoplasmic p65 ratio, rep 2 = 1.38; low cell count flag = enough cells to score
Serpinf1 → p65 translocation robust z-score = -0.31; nuclear/cytoplasmic p65 ratio, rep 1 = 1.45; nuclear/cytoplasmic p65 ratio, rep 2 = 1.56; low cell count flag = enough cells to score
Mrpl39 → p65 translocation robust z-score = 1.77; nuclear/cytoplasmic p65 ratio, rep 1 = 2.2; nuclear/cytoplasmic p65 ratio, rep 2 = 1.74; low cell count flag = enough cells to score
Rgs18 → p65 translocation robust z-score = 0.19; nuclear/cytoplasmic p65 ratio, rep 1 = 1.39; nuclear/cytoplasmic p65 ratio, rep 2 = 1.29; low cell count flag = enough cells to score
Efnb3 → nuclear/cytoplasmic p65 ratio, rep 1 = 1.5; nuclear/cytoplasmic p65 ratio, rep 2 = 1.21; low cell count flag = fewer than 50 cells per well; well left out of scoring
